Measurements from US20160046678A1 (ZYNGENIA, published 2016).
Results are given in words; binding and its absence hold for the method and conditions named. Some results given as binding are weak or reduced against the parent protein; the word gives no strength.

Amino acid sequences for entries named in this document (tags omitted). A change or cut given only in a name is not applied to a line headed by its entry. Chains listed by the source or under a name are the forms on record and can include a tag or linker. Residues count along the entry.
VEGF (P15692, form named): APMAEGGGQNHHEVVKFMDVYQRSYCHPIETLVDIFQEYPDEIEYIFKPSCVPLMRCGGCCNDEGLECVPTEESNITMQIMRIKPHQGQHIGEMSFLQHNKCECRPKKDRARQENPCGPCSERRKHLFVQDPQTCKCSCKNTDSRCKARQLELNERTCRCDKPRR
UniProt Q16552, residues 24-155: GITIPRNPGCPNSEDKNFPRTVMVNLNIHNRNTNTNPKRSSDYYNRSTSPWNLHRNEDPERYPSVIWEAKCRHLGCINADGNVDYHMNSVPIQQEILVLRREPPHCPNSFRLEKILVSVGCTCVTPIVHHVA

Biological target: VEGF (UniProt P15692)
Experiment: MRD identification, Example 48

| binding | Binder |
| --- | --- |
| binds | WCAGFPPTSAGY [VGF131] |
| binds | TCWKPAPWWLCD [VGF30] |
| binds | GCVAQVPWWLCI [VGF72] |
| binds | VEPNCDIHVMWEWECFERL [VGF107] |
| binds | ACVKEAPWWLCI [VGF76] |
| binds | GGVEAAAWWVGI [VGF101] |
| binds | TCWKAAPWWLCA [VGF39] |
| binds | ACWKATPWWLCD [VGF32] |
| binds | GAVTEAAWWLAI [VGF100] |
| binds | GCVAEVPWWLCI [VGF82] |
| binds | WCAGFPPNYPCY [VGF47] |
| binds | TCGKAAAAWLAA [VGF146] |
| binds | TAWEAAASWLCA [VGF140] |
| binds | WCNGFPPNYPCY [VGF49] |
| binds | ASWKPAPWWLCA [VGF156] |

More lines, now with the values behind:

| Binder | binding |
| --- | --- |
| ACWKPAPWWLCD [VGF37] | binds |
| ACWKAAPWWLCA [VGF40] | binds |
| GCVAEVPWWLCT [VGF95] | binds |
| WCNGFPPNYPCA [VGF53] | binds |
| ACWKAAPWWLCD [VGF35] | binds |
| WCNGFPPNYPCS [VGF48] | binds |
| GCVKPAPWWLCV [VGF85] | binds |
| GCVTEVPWWLCI [VGF71] | binds |
| GCVKPAPWWLCI [VGF70] | binds |
| ACVKEVPWWLCI [VGF62] | binds |
| ACVKQVPWWLCI [VGF83] | binds |
| TSWKAAAWGLCA [VGF31] | binds |
| GCVKQVPWGLCI [VGF104] | binds |
| TGWKPTAWGVGD [VGF152] | binds |
| TCWKATPWWLCD [VGF38] | binds |
| GGVKQVASWLGT [VGF99] | binds |
| GCVKQVPWWLCI [VGF63] | binds |
| GCVTQVPWWLCI [VGF60] | binds |
| GCVKAAPWWLCV [VGF67] | binds |
| ACVAEVPWWLCI [VGF65] | binds |
| GCVKQVPWWLCV [VGF59] | binds |
| GCVKEVPWWLCI [VGF57] | binds |
| TCWKAAPWWLCD [VGF36] | binds |
| TCWKATPWWLCA [VGF34] | binds |
| TSGKATPGGACD [VGF162] | binds |
| GCVKEVPWWLCV [VGF69] | binds |

Biological target: IL17a (UniProt Q16552)
Experiment: peptide selection, Example 48

| binding | Binder |
| --- | --- |
| binds | LSLWCWINDVNCSEPV [ILA31] |
| binds | KCNFNPWKAACG [ILA29] |
| binds | LDLWCWFPNDDWCMTHL [ILA24] |
| binds | LHLWCWMFPLDDACADFF [ILA23] |
| binds | LTLWCWIFPQDEICWTML [ILA37] |
| binds | LNLWCWMFPAAAECEFDQ [ILA35] |
| binds | LSLWCFIDETSEQCSILS [ILA33] |
| binds | YDVWCFFFPDEIMCNETQ [ILA27] |
| binds | MGELCEFFGFHDCPMQI [ILA11] |
| binds | DWATCWEFNELWYCIPYN [ILA13] |
| binds | SETLCWDGWDIWICQDPQ [ILA12] |

Second part, the binder before the results:

| Binder | binding |
| --- | --- |
| LDLWCWFPNDTKCMRLT [ILA9] | binds |
| LGLWCWMFPIDSFCYPAV [ILA19] | binds |
| FDLYCWVWPDMMECTAGT [ILA3] | binds |
| LGLWCFVYPDDQMCIRSW [ILA10] | binds |
| STEGCHQDWYDLCAFLA [ILA5] | binds |
| MVLDCYIIEELDEYWCDWYS [ILA25] | binds |
| MDLSCWMTDPTLEWWFCEYRP [ILA34] | binds |
| LALWCWMFPMSDECPPKH [ILA39] | binds |
| GTWDCWVEGEWVYCTPWS [ILA4] | binds |
| LSLWCWMFPEHNACLSPV [ILA6] | binds |
| VEIDCEYDWMNEYLYCAPRV [ILA28] | binds |
| VSYLCDEYQGLLYCMVQR [ILA8] | binds |
| WCFGCVIPPFWYECMCPT [ILA36] | binds |
| LSLWCWHDQAEFCVESN [ILA1] | binds |
| ESLWCWMFPNEQTCLVQH [ILA7] | binds |
| IFFDCTFSDWQLDCVELD [ILA38] | binds |
| DWLHCEIKPPFYHCWNMT [ILA30] | binds |
| LGLWCWMFPIDSFCYPAI [ILA26] | binds |
| SKYDCFWEHEWLYCAPRM [ILA2] | binds |
| IDPGCWLTPWSFQCPGYM [ILA16] | binds |
